Experimental data reported in PubChem BioAssay AID1688 (National Center for Advancing Translational Sciences (NCATS), 2009).
Among all 220,000 compounds or so, about 2,400 (1.1%) were called active. This list was built around the results that the source calls inconclusive (neither active nor inactive); the mix of calls is not that of the screen. The call rests on the fitted dose curve; in most records, active means well fitted inhibition curve with a large enough effect; inconclusive means small, poorly fitted or top-dose-only effect, or effect the other way; inactive means no such curve, though single readings can be large or run the other way. Where the call is inconclusive, the potency comes from a doubtful curve fit.

Experiment: qHTS Multiplex Assay to Identify Dual Action Probes in a Cell Model of Huntington: Aggregate Formation (GFP); further: nearly all actives have a fitted effect of over 60% in size
Details: PC12 HttQ103-GFP aggregates, Acumen cytometry, 40 h; activity change, negative = inhibition: at 46.1 µM (top of the series) unless noted
Method in brief: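 PC12 cells with ecdysone-inducible HTT exon1 Q103-GFP, induced by 100 nM tebufenozide, given compounds in a concentration series. GFP aggregates (1–25 um, 6 SD above background) counted in lysates by laser-scanning cytometry, 488 nm excitation.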
On the % scale 0 is the no-effect control and ±100 the full control effect; potency means the concentration at half of the fitted maximal effect.

Structure (SMILES) | activity change, negative = inhibition | Potency
N=C1/C(=C\c2ccc(SCc3ccccc3)o2)C(=O)N=C2SC=NN12 | inactive: -16.9% | 
CC(C)(C)NC(=O)c1cccc(NC(=O)c2ccc(NC(=O)c3ccco3)cc2)c1 | inactive: 3.41% | 
Cc1noc(C)c1C(=O)N(CC(=O)NC1CCCC1)Cc1ccccc1F |  | inconclusive: 0.0316 µM [inhibitor, full curve, poor fit]
CCOC(=O)c1c(-c2ccc(C)cc2)csc1NC(=O)CCN1CCOCC1 | inactive: -15.3% | 
CC1(C)CC(=O)C2=C(C1)N1C(=C(C#N)C2c2ccc(Cl)cc2)N=C(N)c2ccccc21 (centres undefined) |  | inconclusive: 35.5 µM [inhibitor, single point]
CC(=O)N1CCC2(CC1)CC(=O)c1cc(OCC(=O)NCc3ccco3)ccc1O2 |  | inconclusive: 0.891 µM [inhibitor, single point]
O=C(NCCN1CCOCC1)c1cnn2c(-c3ccccc3)cc(-c3ccccc3)nc12 |  | inconclusive: 35.5 µM [inhibitor, single point]
CCN(CC)S(=O)(=O)c1ccc(NC(=O)CCC2CCCCC2)cc1 |  | inconclusive: 35.5 µM [inhibitor, single point]
CCOC(=O)c1c(C)c(C(=O)N2CCCCCC2)c(C)n1CC | inactive: -0.983% | 
COc1cc(C)c(CNc2cc(C)cc(C)c2)cc1C | inactive: -4.06% | 
COc1ccc(OC)c(-c2cc(C(=O)NCc3cccs3)no2)c1 | inactive: -4.89% | 
COc1ccc2c(Cl)c(C(N)=O)sc2c1 |  | inconclusive: 14.1 µM [inhibitor, partial curve]
Cc1ccc(CNC(=O)C2CC(c3cccc(F)c3)=NO2)cc1 (centres undefined) | inactive: 14.4% [at 9.22 µM] | 
Cc1[nH]c(=O)c(C(=O)/C=C/c2ccccc2F)c2c1CCCC2 |  | inconclusive: 11.2 µM [inhibitor, single point]
O=C(CCC(=O)N(CC(=O)NC1CCCCC1)CC1CCCO1)Nc1nccs1 (centres undefined) | inactive: -5.43% [at 9.22 µM] | 
CC1(C)CC(NNCCC#N)=CC(=[N+]2CCCC2)C1 |  | inconclusive: 35.5 µM [inhibitor, single point]
COc1cccc(NC(=S)NCCC(c2ccccc2)c2ccccc2)c1 |  | inconclusive: 22.4 µM [inhibitor, single point]
Cc1c(Br)c(O)c(Br)c2sc(=O)oc12 | inactive: -2.52% [at 9.22 µM] | 
CCN(CC)CCNc1ncnc2c1[nH]c1ccc(OC)cc12 | inactive: -7.51% | 
COc1ccc(NC(=O)c2nn(C34CC5CC(CC(C5)C3)C4)cc2[N+](=O)[O-])cc1 | inactive: 5.56% | 
O=C(Oc1ccc(N(Cc2cccs2)C2=NS(=O)(=O)c3ccccc32)cc1)c1ccccc1F |  | inconclusive: 0.562 µM [inhibitor, full curve, poor fit]
COCCn1c(-c2ccc(Br)cc2)csc1=Nc1cccnc1 |  | inconclusive: 35.5 µM [inhibitor, single point]
Cc1cc(C)nc(NNC(=O)NC2CCCCC2)n1 |  | inconclusive: 0.794 µM [inhibitor, single point]
Oc1cccc(/C=N/NC(=S)Nc2cccnc2)c1O |  | inconclusive: 7.08 µM [inhibitor, partial curve]
CC(=O)Nc1ccc(NC(=O)C(C)OC(=O)c2ccc(OCc3c(C)noc3C)cc2)cc1 (centres undefined) |  | inconclusive: 7.94 µM [activator, partial curve]

Structure (SMILES) | activity change, negative = inhibition | Potency
Fc1cccc(Cc2noc(CN3CCCCC3CCc3ccccn3)n2)c1 (centres undefined) | inactive: 1.31% | 
COc1cccc(CN(C(=O)Cc2c[nH]c3ccccc23)C(C(=O)NC2CCCCC2)c2ccc(C)o2)c1 (centres undefined) |  | active: 12.6 µM
COc1cc(OC)cc(C(=O)NNC(=O)c2ccccn2)c1 |  | active: 11.2 µM
S=C(c1cn(CCOc2cccc3ccccc23)c2ccccc12)N1CCCC1 |  | inconclusive: 20 µM [inhibitor, partial curve]
O=C(CSc1ccc2ccccc2c1)NCCc1ccc(O)c(O)c1 |  | inconclusive: 35.5 µM [inhibitor, single point]
Cn1c(=O)cc(OCCCC(=O)N2CCN(c3ccccc3)CC2)c2ccccc21 |  | inconclusive: 20 µM [activator, single point]
O=C(CSc1nnnn1Cc1ccccc1)Nc1ccc2c(c1)OCCO2 | inactive: 1.56% | 
O=C(C1=C(O)C(=O)N(CCc2ccccc2)C1c1cccnc1)c1ccco1 (centres undefined) | inactive: 5.91% | 
CCOC(=O)C1CCN(S(=O)(=O)c2ccc(C)c(C)c2)CC1 |  | inconclusive: 2.82 µM [inhibitor, single point]
Cn1c(=O)c2c(nc(N3CCCCCC3)n2Cc2cccc3ccccc23)n(C)c1=O |  | inconclusive: 12.6 µM [inhibitor, partial curve]
CCN1/C(=C/C=C/c2oc3ccc(-c4ccccc4)cc3[n+]2CC)Oc2ccc(-c3ccccc3)cc21 |  | active: 0.355 µM
COc1cccc(/C=N/NC(=O)c2c(C)nc3ccc(Br)cn23)c1O |  | active: 2.24 µM
O=C(CSc1nc(-c2ccccc2)cs1)NCc1ccco1 | inactive: -1.24% | 
O=C(COc1ccccc1Cl)c1ccc2c(c1)CCCC2 |  | inconclusive: 35.5 µM [inhibitor, single point]
CC(=O)Nc1ccc(-c2csc(Nc3cc(C)ccn3)n2)cc1 | inactive: -9.24% | 
C#CCNc1c2c(nc3ncnn13)CC(C)CC2 (centres undefined) | inactive: 38.4% [at 9.22 µM] | 
Cc1cc(C(=O)N/N=C/c2cc(Br)cc(Br)c2OC(=O)c2ccccc2)n[nH]1 |  | active: 4.47 µM
Oc1c(Br)cc(Br)cc1C=NCc1ccc(F)cc1 | inactive: 7.25% | 
Cc1ccc(NC(=O)CCC(=O)NNC(=O)NC2CCCCC2)c(C)c1 |  | inconclusive: 1.58 µM [activator, single point]
CC(C)C1=CC2=CC[C@@H]3[C@](C)(CCC[C@@]3(C)C(=O)O)[C@H]2CC1 | inactive: 14.7% | 
CC1=NN(Cc2ccccc2)C(=O)C1C(c1ccc(Cl)cc1)C(C#N)C#N (centres undefined) |  | inconclusive: 11.2 µM [activator, partial curve, poor fit]
O=C(O)c1c(Cl)c(Cl)c(Cl)c(Cl)c1C(=O)N1CCOCC1 |  | inconclusive: 3.16 µM [inhibitor, single point]
CC(C)(C)c1cc(Cl)c(O)c(NC(=S)NC(=O)c2cccnc2)c1 |  | inconclusive: 2 µM [inhibitor, partial curve]
CCOC(=O)c1cc(-c2ccc(OC)cc2OC)nn1-c1ccc(C(=O)O)cc1 |  | inconclusive: 35.5 µM [activator, single point]
CN1CCN(C2=CC3=CC(=C(C#N)C#N)CCC3CC2)CC1 (centres undefined) |  | active: 0.316 µM

Shown as tab-separated lines: 3 of the compounds above.
Structure (SMILES)	activity change, negative = inhibition	Potency
Cc1ccc(NC(=O)CCC(=O)NNC(=O)NC2CCCCC2)c(C)c1		inconclusive: 1.58 µM [activator, single point]
CC(C)C1=CC2=CC[C@@H]3[C@](C)(CCC[C@@]3(C)C(=O)O)[C@H]2CC1	inactive: 14.7%	
CC1=NN(Cc2ccccc2)C(=O)C1C(c1ccc(Cl)cc1)C(C#N)C#N (centres undefined)		inconclusive: 11.2 µM [activator, partial curve, poor fit]

Continuation:

Structure (SMILES) | activity change, negative = inhibition | Potency
CN(C(=O)Nc1ccc(Cl)cc1Cl)[C@H]1c2cc(Br)ccc2OC[C@H]1CO |  | inconclusive: 25.1 µM [inhibitor, single point]
CC(=O)COc1ccc2c3c(c(=O)oc2c1C)CCCCC3 |  | inconclusive: 10 µM [inhibitor, partial curve]
COc1ccc(OC)c(C2CC(=O)C3=C(C2)NC(=O)CC3c2ccc(O)c(OC)c2)c1 (centres undefined) |  | inconclusive: 0.501 µM [activator, partial curve, poor fit]
O=C(CNCC1CCCCC1)Nc1ccc(N2CCCCC2)cc1 | inactive: 6.04% | 
Cc1c(C(=O)OCc2ccccc2)[nH]c2c1C(=O)CC(c1ccco1)C2 (centres undefined) | inactive: -15.6% | 
Cc1nn(-c2ccccc2)c(C)c1C(=O)OCC(=O)NC12CC3CC(CC(C3)C1)C2 |  | inconclusive: 1.41 µM [activator, partial curve]
O=C(Cn1cnc2c(nnn2Cc2ccccc2F)c1=O)NCC1CCCO1 (centres undefined) | inactive: -5.07% | 
O=C(c1ccco1)N1CCN(CCOc2ccccc2)CC1 | inactive: 12.3% [at 9.22 µM] | 
CC1=CC(C)(C)Nc2ccc(OC(=O)C(C)N3C(=O)c4ccccc4C3=O)cc21 (centres undefined) | inactive: 2.01% [at 9.22 µM] | 
CC(=O)OCCCN1C(=O)c2ccc(Br)cc2C1=O | inactive: 3.54% | 
COc1ccc(OCCSc2nc(C)nc3ccccc23)cc1 |  | inconclusive: 35.5 µM [inhibitor, single point]
c1ccc(N2CCOCC2)c(Nc2nc3ccccc3n3cnnc23)c1 |  | inconclusive: 35.5 µM [inhibitor, single point]
COc1cccc(N2CC(C(=O)Nc3nnc(SCc4cccnc4)s3)CC2=O)c1 (centres undefined) |  | inconclusive: 3.98 µM [inhibitor, single point]
COC(=O)Nc1ccc([N+](=O)[O-])cc1OC |  | inconclusive: 5.62 µM [inhibitor, single point]
O=C(O)c1ccc2c3c(cccc13)C(=O)N(c1ccccc1)C2=O | inactive: 8.27% | 
C=CCNC1=C(Cl)C(=O)c2ccccc2C1=O |  | inconclusive: 35.5 µM [inhibitor, single point]
CC1(C)C(C=C(Cl)Cl)C1C(=O)Nc1ccc([N+](=O)[O-])cc1 (centres undefined) |  | inconclusive: 35.5 µM [inhibitor, single point]
COc1ccc(/C=C2/SC(c3ccc(C)cc3)=NC2=O)cc1OC |  | inconclusive: 22.4 µM [activator, single point]
CC1CCCCC1NC(=O)C1CCN(C(=O)c2sccc2-n2cccc2)CC1 (centres undefined) | inactive: 1.41% | 
O=C(CN1C(=O)S/C(=C\c2ccc(F)cc2)C1=O)Nc1cccc(S(=O)(=O)NCc2ccco2)c1 |  | inconclusive: 1.58 µM [activator, partial curve, poor fit]
CCCCN1C2CCCC1CC(NC(=O)C1CCCCC1)C2 (centres undefined) | inactive: -13.2% | 
COC(=O)C1=C(C)N(CCc2ccc(OC)c(OC)c2)C(=O)/C1=C\N(C)C |  | inconclusive: 35.5 µM [activator, single point]
O=C(CSc1nc(O)c(C2CCCCC2)c(=O)[nH]1)Nc1ccc(Cl)cc1 | inactive: 12.2% | 
Cc1ccc(Nc2nc(Cl)nc(N(C)C#N)n2)cc1 |  | inconclusive: 15.8 µM [activator, partial curve]
